Measurements reported in patent US20230416341A1 (priority 2020, published 2023).

Tests used:
[1] = general procedure: Fmoc solid-phase peptide synthesis; 2-chlorotrityl chloride resin (1.22 mmol/g); Rink Amide resin (0.7 mmol/g); Fmoc-Ala-Wang polystyrene resin; PyBOP/NMM; DIC/HOAt; conditions: coupling step
[2] = Fmoc solid-phase peptide synthesis; Fmoc-Ala-Wang polystyrene resin; PyBOP/NMM; DIC/HOAt; conditions: whole synthesis, scale 100 μmol

YPESDSAKDDGNQEKEKALLVKVQERSDDGD ? DE ? DNDETTHTPDPSAPTA RPRIREHQA
step yield [1]: 55%
isolated mass [2]: 40.6 mg
isolated yield [2]: 5.7%
